Source: PMC12088036
These are yes or no findings as the source states them, for the method shown. Binding seen in cells or lysates may run through a third protein. Some binding calls cover weakened binding; strength is not graded here.

Amino acid sequences for entries named in this document (tags omitted).
UniProt Q92878: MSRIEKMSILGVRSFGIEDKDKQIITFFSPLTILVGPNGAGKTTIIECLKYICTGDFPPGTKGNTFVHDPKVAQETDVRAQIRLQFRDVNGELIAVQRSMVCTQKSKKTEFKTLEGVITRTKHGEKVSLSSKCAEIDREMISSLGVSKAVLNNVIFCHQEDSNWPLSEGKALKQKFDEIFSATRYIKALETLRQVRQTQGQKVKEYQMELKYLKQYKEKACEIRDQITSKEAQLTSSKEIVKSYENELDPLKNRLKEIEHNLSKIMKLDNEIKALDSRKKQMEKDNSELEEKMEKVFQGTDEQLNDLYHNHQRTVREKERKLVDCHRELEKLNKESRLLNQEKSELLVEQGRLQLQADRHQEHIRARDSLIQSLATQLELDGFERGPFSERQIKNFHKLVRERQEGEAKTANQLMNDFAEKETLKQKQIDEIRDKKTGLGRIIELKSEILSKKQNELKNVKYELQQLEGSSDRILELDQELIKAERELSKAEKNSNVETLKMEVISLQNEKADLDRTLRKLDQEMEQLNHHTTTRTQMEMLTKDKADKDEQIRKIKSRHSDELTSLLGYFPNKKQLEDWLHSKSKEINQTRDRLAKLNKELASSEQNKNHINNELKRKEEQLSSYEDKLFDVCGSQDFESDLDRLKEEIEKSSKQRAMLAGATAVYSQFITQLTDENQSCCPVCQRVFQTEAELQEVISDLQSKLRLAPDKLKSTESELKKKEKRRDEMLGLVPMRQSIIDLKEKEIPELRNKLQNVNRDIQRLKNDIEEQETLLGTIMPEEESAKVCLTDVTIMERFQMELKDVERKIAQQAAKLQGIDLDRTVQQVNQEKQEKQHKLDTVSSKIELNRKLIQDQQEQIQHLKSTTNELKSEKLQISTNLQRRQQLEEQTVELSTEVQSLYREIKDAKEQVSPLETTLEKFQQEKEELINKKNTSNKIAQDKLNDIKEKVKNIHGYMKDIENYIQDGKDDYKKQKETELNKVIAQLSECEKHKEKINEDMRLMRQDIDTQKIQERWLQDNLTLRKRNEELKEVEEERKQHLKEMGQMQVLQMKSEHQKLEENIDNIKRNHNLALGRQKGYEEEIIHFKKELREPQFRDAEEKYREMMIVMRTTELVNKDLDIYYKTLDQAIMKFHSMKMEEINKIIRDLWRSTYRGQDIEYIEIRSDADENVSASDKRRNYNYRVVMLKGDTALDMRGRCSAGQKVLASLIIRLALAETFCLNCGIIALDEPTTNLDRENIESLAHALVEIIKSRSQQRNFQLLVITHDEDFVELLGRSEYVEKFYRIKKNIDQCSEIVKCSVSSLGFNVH
UniProt O60934: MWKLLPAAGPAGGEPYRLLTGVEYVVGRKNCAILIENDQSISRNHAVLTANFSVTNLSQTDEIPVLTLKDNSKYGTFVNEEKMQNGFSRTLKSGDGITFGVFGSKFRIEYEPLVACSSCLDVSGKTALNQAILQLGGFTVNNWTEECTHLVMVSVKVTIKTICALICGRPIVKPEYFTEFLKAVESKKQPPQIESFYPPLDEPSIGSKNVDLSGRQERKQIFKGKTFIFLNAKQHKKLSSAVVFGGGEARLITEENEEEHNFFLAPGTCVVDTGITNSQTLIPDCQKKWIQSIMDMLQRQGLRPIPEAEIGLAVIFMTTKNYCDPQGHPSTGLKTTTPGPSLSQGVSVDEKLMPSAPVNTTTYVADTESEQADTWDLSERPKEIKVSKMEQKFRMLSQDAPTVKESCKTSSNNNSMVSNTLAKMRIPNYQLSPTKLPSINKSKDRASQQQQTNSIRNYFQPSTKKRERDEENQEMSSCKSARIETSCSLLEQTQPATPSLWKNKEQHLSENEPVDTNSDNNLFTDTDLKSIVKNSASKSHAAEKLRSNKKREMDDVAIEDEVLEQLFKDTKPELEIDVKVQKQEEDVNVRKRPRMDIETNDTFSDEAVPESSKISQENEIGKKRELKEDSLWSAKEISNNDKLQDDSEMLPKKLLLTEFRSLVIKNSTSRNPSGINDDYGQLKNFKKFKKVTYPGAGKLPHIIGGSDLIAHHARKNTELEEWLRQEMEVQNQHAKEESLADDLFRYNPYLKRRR

Target: T1, Peroxiredoxin 1 (human (endogenous in HeLa and HEK293)) (UniProt Q06830)
T1 sequence: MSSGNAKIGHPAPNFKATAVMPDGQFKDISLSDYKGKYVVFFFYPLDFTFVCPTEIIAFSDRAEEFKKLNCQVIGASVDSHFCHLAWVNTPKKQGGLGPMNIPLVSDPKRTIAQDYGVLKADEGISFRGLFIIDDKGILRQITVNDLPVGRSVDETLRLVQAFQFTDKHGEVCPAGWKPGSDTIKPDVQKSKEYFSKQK
Experiment: co-IP; anti-PRDX1 antibody on total extracts of HeLa or HEK293 control cells (RIPA buffer, sonicated); lysates pre-treated with DNaseI for 30 min; antibody overnight, protein A/G magnetic beads 2 h at room temperature; 4 washes in PBS with 0.01% Tween 20; western blot; PRDX1-deleted cells as negative control

Substance | binding
RAD50 (from UniProt Q92878 1-1312) | binds
NBS1 (from UniProt O60934 1-754) | binds
